The source of these data is article PMC8016481, “Tachykinin signaling inhibits task-specific behavioral responsiveness in honeybee workers” (eLife, 2021).

Data set [1] in a line: Label-free quantitative brain neuropeptidomics, comparison between Apis cerana cerana and Apis mellifera ligustica.
The nature of data set [2]: Label-free quantitative brain neuropeptidomics, Apis cerana cerana (LC-MS/MS). The following applies: ACC.
Where [3] appears, read: nurse bees, AML-NBs relative to base group ACC-NBs (= 1.00).
Setting [4] is: NFs relative to base group NBs (= 1.00).
Where [5] appears, read: NFs relative to base group PFs (= 1.00).
The mark [6] stands for this setting: PFs relative to base group NBs (= 1.00).
[7] abbreviates: nectar foragers, AML-NFs relative to base group ACC-NFs (= 1.00).
The mark [8] stands for this setting: pollen foragers, AML-PFs relative to base group ACC-PFs (= 1.00).

In the case of ALMGFQGVRG, the “Group Profile (Ratio)” value in data set [1] (setting [3]) is reported as 1.00 : 0.43; in data set [2] (setting [4]) it was 1.00 :5.86; in data set [2] (setting [5]), 1.00 : 3.14; in data set [2] (setting [6]), 1.00 : 1.87.
With ALMGFQGVRa, the “Group Profile (Ratio)” value is 1.00 : 0.37 in data set [1] (setting [7]); 1.00 : 0.43 in data set [1] (setting [3]); 1.00 : 0.36 in data set [1] (setting [8]); 1.00 : 11.76 in data set [2] (setting [4]); 1.00 : 2.54 in data set [2] (setting [5]); 1.00 : 4.64 in data set [2] (setting [6]).
For APMGFQGMRG, the “Group Profile (Ratio)” value is 1.00 : 0.36 in data set [1] (setting [3]), 1.00 :8.68 in data set [2] (setting [4]), 1.00 : 1.87 in data set [2] (setting [5]) and 1.00 : 4.64 in data set [2] (setting [6]).
For the substance APMGFQGMRa, the “Group Profile (Ratio)” value in data set [1] (setting [7]) was 1.00 : 0.34; in data set [1] (setting [3]), 1.00 : 0.4; in data set [1] (setting [8]) it was 1.00 : 0.29; in data set [2] (setting [4]) it was 1.00 :10.86; in data set [2] (setting [5]) it was 1.00 : 2.18; in data set [2] (setting [6]), 1.00 : 5.01.
Turning to APMGFYGTRG, the “Group Profile (Ratio)” value was 1.00 :6.48 in data set [2] (setting [4]) and 1.00 : 4.96 in data set [2] (setting [6]).
For APVGYQEMQGKKNSASLNSENFGIF, in that order: 1.00 :4.14 and 1.00 : 4.07.
For ARMGFHGMRG, the “Group Profile (Ratio)” value in data set [2] (setting [4]) is 1.00 :3.98; in data set [2] (setting [6]), 1.00 : 3.06.
Turning to ASFDDEYY, the entries for the “Group Profile (Ratio)” value in data set [1] (setting [8]), in data set [2] (setting [4]) and in data set [2] (setting [6]) were 1.00 : 0.14, 1.00 :6.95 and 1.00 : 5.33, respectively.
As to AVHYSGGQPLGSKRPNDMLSQRYHFGLa, the “Group Profile (Ratio)” value in data set [2] (setting [5]) is given as 1.00 : 0.64.
As to AYRKPPFNGSIFa, the figures for the “Group Profile (Ratio)” value in data set [2] (setting [4]) and in data set [2] (setting [6]) were 1.00 :0.19 and 1.00 : 0.29, respectively.
Take AYTYVSEYKRLPVYNFGIa: the “Group Profile (Ratio)” value in data set [1] (setting [3]) was 1.00 : 0.34.
Regarding DLSRFYGHF, the “Group Profile (Ratio)” value in data set [1] (setting [3]) was 1.00 : 0.23.
For the substance GLDLGLSRGFSGSQAA, the “Group Profile (Ratio)” value in data set [1] (setting [3]) is reported as 1.00 : 2.84.
In the case of GLDLGLSRGFSGSQAAKHLMa, the “Group Profile (Ratio)” value in data set [1] (setting [3]) is on record as 1.00 : 1.82; in data set [2] (setting [4]), 1.00 :5.45; in data set [2] (setting [6]) it was 1.00 : 4.18.
In the case of GMWFGPRLa, the “Group Profile (Ratio)” value in data set [1] (setting [3]) is recorded as 1.00 : 2.08; in data set [1] (setting [8]), 1.00 : 2.32.
With GRNDLNFIRYa, in data set [1] (setting [8]), the “Group Profile (Ratio)” value is 1.00 : 0.31.
On to IDLSRFYGHF, for which the “Group Profile (Ratio)” value in data set [1] (setting [3]) is reported as 1.00 : 3.59; in data set [1] (setting [8]) it was 1.00 : 1.6.
In the case of IDLSRFYGHFN, in data set [2] (setting [5]), the “Group Profile (Ratio)” value was 1.00 : 2.1.
In the case of IDLSRFYGHFNT, the “Group Profile (Ratio)” value is on record as 1.00 : 0.55 in data set [1] (setting [7]), 1.00 :6.65 in data set [2] (setting [4]), 1.00 : 2.04 in data set [2] (setting [5]) and 1.00 : 3.26 in data set [2] (setting [6]).
In the case of ITGQGNRIF, the “Group Profile (Ratio)” value in data set [2] (setting [6]) is 1.00 : 2.89.
As for KPPFNGSIFa, the “Group Profile (Ratio)” value in data set [1] (setting [3]) is given as 1.00 : 2.12; in data set [2] (setting [4]), 1.00 :0.36; in data set [2] (setting [6]) it was 1.00 : 0.48.
In the case of LPTNLGEDTKKTEQTMRPKS, in data set [2] (setting [6]), the “Group Profile (Ratio)” value is 1.00 : 0.29.
Turning to LRNQLDIGDLQ, the “Group Profile (Ratio)” value in data set [1] (setting [8]) is given as 1.00 : 2.16.
With LTNYLATGHRTNGGPVI, the “Group Profile (Ratio)” value in data set [2] (setting [4]) is recorded as 1.00 :5.13.
With LVDHRIPDLENEMFDSGNDPGSTVVRT, in data set [1] (setting [7]), the “Group Profile (Ratio)” value is reported as 1.00 : 3.25.
As for MVPVPVHHMADELLRSGPDTVI, in data set [2] (setting [5]), the “Group Profile (Ratio)” value was 1.00 : 1.87.
In the case of NIASLIRDYDQSRENRVSFPa, the “Group Profile (Ratio)” value in data set [2] (setting [5]) is listed as 1.00 : 2.05.
On to NLDEIDRVGWSGFV, for which the “Group Profile (Ratio)” value in data set [2] (setting [4]) was 1.00 :3.91; in data set [2] (setting [6]), 1.00 : 2.81.
As to NSELINSLLGLPKNMNNAa, the figures for the “Group Profile (Ratio)” value in data set [1] (setting [7]), in data set [2] (setting [4]) and in data set [2] (setting [6]) were 1.00 : 0.18, 1.00 :4.04 and 1.00 : 3.43, respectively.
For the substance NVASLARTYTLPQNAa, the “Group Profile (Ratio)” value in data set [1] (setting [7]) is listed as 1.00 : 1.71.
On to NVGSVAREHGLPYa, for which the “Group Profile (Ratio)” value in data set [1] (setting [8]) is listed as 1.00 : 2.87; in data set [2] (setting [4]), 1.00 :4.13; in data set [2] (setting [6]), 1.00 : 3.59.
Consider NVGTLARDFALPPa, for which the “Group Profile (Ratio)” value in data set [2] (setting [6]) is given as 1.00 : 2.62.
Take NVPIYQEPRF: the “Group Profile (Ratio)” value in data set [2] (setting [4]) is 1.00 :0.32; in data set [2] (setting [6]), 1.00 : 0.39.
For RVPWTPSPRLa, the “Group Profile (Ratio)” value in data set [1] (setting [8]) is 1.00 : 3.43.
For the substance SDPHLSIGILSKPISAIPSSKFDD, the “Group Profile (Ratio)” value in data set [2] (setting [6]) is recorded as 1.00 : 0.4.
For the substance SISSLARTGDLPVREQ, the figures for the “Group Profile (Ratio)” value in data set [2] (setting [4]), in data set [2] (setting [5]) and in data set [2] (setting [6]) were 1.00 :2.92, 1.00 : 0.11 and 1.00 : 3.96, respectively.
In the case of SLKAPFA, the figures for the “Group Profile (Ratio)” value in data set [2] (setting [4]) and in data set [2] (setting [6]) were 1.00 :2.96 and 1.00 : 2.48, respectively.
SPFRYLGV: the “Group Profile (Ratio)” value in data set [2] (setting [6]) is listed as 1.00 : 2.74.
Turning to SPSLRLRFa, the “Group Profile (Ratio)” value in data set [1] (setting [7]) is recorded as 1.00 : 2.08; in data set [2] (setting [4]) it was 1.00 :0.15; in data set [2] (setting [5]) it was 1.00 : 0.38.
As to SQAYDPYSNAAQFQLSSQSRGYPYQHRL, the “Group Profile (Ratio)” value in data set [1] (setting [3]) is 1.00 : 2.75.
With SQRSPSLRLRFa, in data set [2] (setting [5]), the “Group Profile (Ratio)” value was 1.00 : 0.27.
As for SVSSLAKNSAWPVSL, the “Group Profile (Ratio)” value in data set [1] (setting [7]) is recorded as 1.00 : 1.84.
Regarding TSQDITSGMWFGPRLa, the “Group Profile (Ratio)” value is given as 1.00 : 4.16 in data set [1] (setting [7]) and 1.00 :2.84 in data set [2] (setting [4]).
As for TWKSPDIVIRFa, in data set [2] (setting [5]), the “Group Profile (Ratio)” value was 1.00 : 1.9.
Regarding VPIYQEPRF, the entries for the “Group Profile (Ratio)” value in data set [2] (setting [4]) and in data set [2] (setting [6]) were 1.00 :0.34 and 1.00 : 0.23, respectively.
With WIDTNDNKRGRDYSFGLa, in data set [2] (setting [5]), the “Group Profile (Ratio)” value is on record as 1.00 : 0.6.
In the case of YRKPPFNGSIFa, the “Group Profile (Ratio)” value in data set [1] (setting [3]) is 1.00 : 2.65.
Take YVASLARTGDLPIRGQ: in data set [2] (setting [5]), the “Group Profile (Ratio)” value is recorded as 1.00 : 0.5.
For the substance YVASLARTGDLPIRa, the figures for the “Group Profile (Ratio)” value in data set [1] (setting [8]) and in data set [2] (setting [4]) were 1.00 : 1.96 and 1.00 :4.91, respectively.
With pQDVDHVFLRFa, in data set [1] (setting [3]), the “Group Profile (Ratio)” value is listed as 1.00 : 1.91.
Turning to pQITQFTPRLa, the “Group Profile (Ratio)” value in data set [1] (setting [7]) is recorded as 1.00 : 1.92; in data set [2] (setting [5]), 1.00 : 0.27; in data set [2] (setting [6]) it was 1.00 : 5.9.
As for pQLHNIIDKPRQNFNDP, the “Group Profile (Ratio)” value in data set [2] (setting [5]) is listed as 1.00 : 0.34.
pQLHNIIDKPRQNFNDPRF: in data set [2] (setting [5]), the “Group Profile (Ratio)” value is reported as 1.00 : 0.25.
As for pQMFTYSHGWTNa, the figures for the “Group Profile (Ratio)” value in data set [2] (setting [4]) and in data set [2] (setting [6]) were 1.00 :4.77 and 1.00 : 3.87, respectively.
Regarding pQQFDDYGHLRFa, in data set [1] (setting [8]), the “Group Profile (Ratio)” value was 1.00 : 0.65.
